# Measurements reported in PubChem BioAssay AID1508597 (Cure First, 2020)
# Aim: 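Genes whose silencing sensitises or protects ovarian cancer cells against rucaparib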 (primary screen)
# Cell system: human ovarian carcinoma lines grown from tumours: OCI-P5x (papillary serous) and OCI-C5x (clear cell)
# Reagent: siRNA pool against human genes, 1.25 pmol siRNA per well
# Time to read-out: 72 h or 96 h, depending on the cell culture
# Conditions: rucaparib 20 µM (about IC30) or vehicle, present until read-out
# Rucaparib or vehicle: Vehicle
# Cell line: OCI-P5x (serous)
# Measurement: 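ATP luminescence measured at 72 or 96 h according to the culture, then normalised and expressed as percent viability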
# Direction: viability, normalised: higher = more viable cells remaining
# Rule for the call: 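Active when normalised viability falls below 80 percent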
# Meaning of the calls: active = viability under 80%; inactive = viability 80% or more
# Shown is an unselected part of the about 2,100 reagents, under one of the conditions tested. 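Calls flag viability under 80% in either arm, not effects specific to rucaparib; the reference for percent is not stated.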 Entries without a mark were called inactive. No sequences are given here. The record does not give: the 100% reference.
Gene,technical replicate,"viability, normalised (%)"
PRDM4 (GeneID 11108),1,73.5 (active)
PRDM4 (GeneID 11108),2,85.6
PRDM4 (GeneID 11108),3,82.1
BID (GeneID 637),1,51.2 (active)
BID (GeneID 637),2,53.8 (active)
BID (GeneID 637),3,54.4 (active)
SETD1B (GeneID 23067),1,56.2 (active)
SETD1B (GeneID 23067),2,50.2 (active)
SETD1B (GeneID 23067),3,82.8
PRKD3 (GeneID 23683),1,97.1
PRKD3 (GeneID 23683),2,93.2
PRKD3 (GeneID 23683),3,61.9 (active)
RAPGEF3 (GeneID 10411),1,100
RAPGEF3 (GeneID 10411),2,86.5
RAPGEF3 (GeneID 10411),3,102
TEC (GeneID 100124696),1,101
TEC (GeneID 100124696),2,80.5
TEC (GeneID 100124696),3,68.4 (active)
CHKA (GeneID 1119),1,72.4 (active)
CHKA (GeneID 1119),2,84.8
CHKA (GeneID 1119),3,45.7 (active)
TDRD12 (GeneID 91646),1,70 (active)
TDRD12 (GeneID 91646),2,66.1 (active)
TDRD12 (GeneID 91646),3,79.8 (active)
CHD8 (GeneID 57680),1,80.4
CHD8 (GeneID 57680),2,88
CHD8 (GeneID 57680),3,60.5 (active)
CASK (GeneID 8573),1,105
CASK (GeneID 8573),2,111
CASK (GeneID 8573),3,85.6
GFI1B (GeneID 8328),1,62.7 (active)
GFI1B (GeneID 8328),2,71.1 (active)
GFI1B (GeneID 8328),3,67.7 (active)
APTX (GeneID 54840),1,68.3 (active)
APTX (GeneID 54840),2,56 (active)
APTX (GeneID 54840),3,72.8 (active)
H4C2 (GeneID 8366),1,88.1
H4C2 (GeneID 8366),2,57.2 (active)
H4C2 (GeneID 8366),3,116
PRKG1 (GeneID 5592),1,54.4 (active)
PRKG1 (GeneID 5592),2,86.6
PRKG1 (GeneID 5592),3,86.9
ASF1A (GeneID 25842),1,68.3 (active)
ASF1A (GeneID 25842),2,77.4 (active)
ASF1A (GeneID 25842),3,76.8 (active)
HDAC5 (GeneID 10014),1,71.4 (active)
HDAC5 (GeneID 10014),2,91.5
HDAC5 (GeneID 10014),3,85.8
HDGFL1 (GeneID 154150),1,62.2 (active)
HDGFL1 (GeneID 154150),2,59.4 (active)
HDGFL1 (GeneID 154150),3,61 (active)
RAE1 (GeneID 8480),1,45.3 (active)
RAE1 (GeneID 8480),2,56.6 (active)
RAE1 (GeneID 8480),3,56.9 (active)
PHF8 (GeneID 23133),1,70.3 (active)
PHF8 (GeneID 23133),2,70.6 (active)
PHF8 (GeneID 23133),3,90.3
FANCE (GeneID 2178),1,71.9 (active)
FANCE (GeneID 2178),2,75.6 (active)
FANCE (GeneID 2178),3,79.9 (active)
POU5F1 (GeneID 5460),1,62.4 (active)
POU5F1 (GeneID 5460),2,80.6
POU5F1 (GeneID 5460),3,67.5 (active)
ARID5A (GeneID 10865),1,35.4 (active)
ARID5A (GeneID 10865),2,60.2 (active)
ARID5A (GeneID 10865),3,66.7 (active)
PTK7 (GeneID 5754),1,59 (active)
PTK7 (GeneID 5754),2,65.7 (active)
PTK7 (GeneID 5754),3,81
EID2 (GeneID 163126),1,61.8 (active)
EID2 (GeneID 163126),2,64.1 (active)
EID2 (GeneID 163126),3,81.3
CDK6 (GeneID 1021),1,87.8
CDK6 (GeneID 1021),2,81.7
CDK6 (GeneID 1021),3,76.3 (active)

Look-ups from the list:
APTX (GeneID 54840), technical replicate 3, viability, normalised (%) = 72.8 (active)
PHF8 (GeneID 23133), technical replicate 1, viability, normalised (%): 70.3 (active)
GFI1B (GeneID 8328), technical replicate 2, viability, normalised (%) = 71.1 (active)
Under “viability, normalised (%)”, H4C2 (GeneID 8366), technical replicate 3 is entered as 116
PHF8 (GeneID 23133), technical replicate 3, viability, normalised (%): 90.3
Entry for CASK (GeneID 8573), technical replicate 1 under “viability, normalised (%)”: 105
